This is one part of the list.
Compound: CS(=O)(=O)CCNCc1ccc(-c2ccc3ncnc(Nc4ccc(OCc5cccc(F)c5)c(Cl)c4)c3c2)o1 [lapatinib]
Experiment: log2 fold change, soluble protein after heating vs DMSO (PISA); higher = thermal stabilisation; K562 lysate, 10 uM; active = over 0.2 and 3.5 SD of the protein, either way, in both replicates (recomputed)
Procedure, shortened: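 Pellets of K562 cells were dounce-homogenised in PBS pH 7.4 with 1 mM MgCl2, and the crude extract was held at 1 mg/mL protein for a 30 min treatment with 10 μM compound. Aliquots were heated for 3 min over 48°C-58°C and pooled before NP-40 was added to 0.5% at 4°C. The supernatant from 21,000xg for 90 min was quantified by TMTpro 16plex LC-MS/MS with channel sums equalised. Values are reported from duplicates as log-two fold change in thermal stability relative to solvent controls.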

Sequences of proteins named here, by UniProt entry; tags and fusion partners are left off. A change or cut given only in a name is not applied to a line headed by its entry.
UniProt Q15843, whole entry, looked up: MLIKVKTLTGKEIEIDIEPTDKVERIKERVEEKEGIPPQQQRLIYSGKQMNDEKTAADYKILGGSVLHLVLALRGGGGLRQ
UniProt Q9P032: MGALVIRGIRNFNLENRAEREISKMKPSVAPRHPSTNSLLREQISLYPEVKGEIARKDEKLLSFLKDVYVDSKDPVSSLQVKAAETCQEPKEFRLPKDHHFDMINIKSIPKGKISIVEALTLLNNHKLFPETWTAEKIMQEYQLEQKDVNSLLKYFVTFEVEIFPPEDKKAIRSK
UniProt P49821, whole entry, looked up: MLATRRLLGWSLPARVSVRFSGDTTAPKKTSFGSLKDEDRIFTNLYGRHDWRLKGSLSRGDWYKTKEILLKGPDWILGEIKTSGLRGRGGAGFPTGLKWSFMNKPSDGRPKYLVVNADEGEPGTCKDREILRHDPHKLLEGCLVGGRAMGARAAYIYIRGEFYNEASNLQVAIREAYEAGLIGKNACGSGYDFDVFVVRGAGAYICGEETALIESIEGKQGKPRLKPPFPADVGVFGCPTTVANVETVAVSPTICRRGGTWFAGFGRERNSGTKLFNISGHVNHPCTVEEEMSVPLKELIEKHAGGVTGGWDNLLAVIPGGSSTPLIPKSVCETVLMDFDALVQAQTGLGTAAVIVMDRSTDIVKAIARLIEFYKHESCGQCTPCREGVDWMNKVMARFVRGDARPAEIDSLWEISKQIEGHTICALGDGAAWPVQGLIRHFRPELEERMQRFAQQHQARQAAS
UniProt Q9BYG3: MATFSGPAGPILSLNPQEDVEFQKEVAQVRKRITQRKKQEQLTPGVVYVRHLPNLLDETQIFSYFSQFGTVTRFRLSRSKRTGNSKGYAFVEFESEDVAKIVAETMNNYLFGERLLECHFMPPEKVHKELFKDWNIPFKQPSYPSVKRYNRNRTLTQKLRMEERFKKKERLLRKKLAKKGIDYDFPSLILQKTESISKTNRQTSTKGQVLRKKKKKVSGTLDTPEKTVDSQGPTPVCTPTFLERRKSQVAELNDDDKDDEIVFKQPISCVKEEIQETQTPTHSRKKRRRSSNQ
UniProt Q9UMS0: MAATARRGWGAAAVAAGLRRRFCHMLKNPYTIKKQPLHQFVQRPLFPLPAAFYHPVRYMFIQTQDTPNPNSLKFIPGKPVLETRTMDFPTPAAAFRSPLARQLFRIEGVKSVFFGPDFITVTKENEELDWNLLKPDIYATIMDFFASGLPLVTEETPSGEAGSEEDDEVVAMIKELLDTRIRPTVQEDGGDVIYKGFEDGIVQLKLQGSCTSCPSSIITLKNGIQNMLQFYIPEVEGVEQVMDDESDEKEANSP
UniProt O14777: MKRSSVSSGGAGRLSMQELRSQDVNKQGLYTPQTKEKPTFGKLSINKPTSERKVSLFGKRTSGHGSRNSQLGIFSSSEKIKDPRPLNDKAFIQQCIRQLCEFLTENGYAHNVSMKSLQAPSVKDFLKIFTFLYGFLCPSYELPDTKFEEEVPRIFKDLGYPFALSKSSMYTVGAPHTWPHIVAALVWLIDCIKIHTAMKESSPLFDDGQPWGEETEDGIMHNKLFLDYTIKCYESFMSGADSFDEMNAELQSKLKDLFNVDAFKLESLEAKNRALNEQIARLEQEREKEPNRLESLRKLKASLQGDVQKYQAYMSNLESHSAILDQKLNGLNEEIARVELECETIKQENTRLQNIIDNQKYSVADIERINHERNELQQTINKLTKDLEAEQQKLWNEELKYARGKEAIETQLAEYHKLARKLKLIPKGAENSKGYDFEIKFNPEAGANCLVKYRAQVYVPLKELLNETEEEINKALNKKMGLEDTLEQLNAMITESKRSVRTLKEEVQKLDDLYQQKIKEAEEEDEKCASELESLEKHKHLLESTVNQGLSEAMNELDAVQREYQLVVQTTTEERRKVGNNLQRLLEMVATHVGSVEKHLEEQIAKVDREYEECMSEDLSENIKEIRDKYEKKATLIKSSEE
UniProt Q8NHV4, whole entry, looked up: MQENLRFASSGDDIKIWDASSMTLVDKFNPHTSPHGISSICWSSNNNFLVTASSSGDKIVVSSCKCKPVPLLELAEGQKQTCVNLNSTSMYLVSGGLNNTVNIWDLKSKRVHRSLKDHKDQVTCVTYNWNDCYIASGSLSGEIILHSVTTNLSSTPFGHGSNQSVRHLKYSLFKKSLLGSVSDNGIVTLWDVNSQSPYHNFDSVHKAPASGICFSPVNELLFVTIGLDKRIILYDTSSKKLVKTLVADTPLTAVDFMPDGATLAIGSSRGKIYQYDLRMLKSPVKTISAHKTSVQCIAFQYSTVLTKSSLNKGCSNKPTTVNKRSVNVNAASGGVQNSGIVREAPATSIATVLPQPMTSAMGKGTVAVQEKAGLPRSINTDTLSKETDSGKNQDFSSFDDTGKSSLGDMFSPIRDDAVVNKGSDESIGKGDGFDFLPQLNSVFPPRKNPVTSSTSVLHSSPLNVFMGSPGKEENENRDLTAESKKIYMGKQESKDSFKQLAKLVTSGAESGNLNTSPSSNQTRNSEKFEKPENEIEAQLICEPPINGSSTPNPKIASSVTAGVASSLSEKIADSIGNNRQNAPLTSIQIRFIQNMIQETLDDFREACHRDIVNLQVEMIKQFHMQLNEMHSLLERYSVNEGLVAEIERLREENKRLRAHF
UniProt Q9Y221: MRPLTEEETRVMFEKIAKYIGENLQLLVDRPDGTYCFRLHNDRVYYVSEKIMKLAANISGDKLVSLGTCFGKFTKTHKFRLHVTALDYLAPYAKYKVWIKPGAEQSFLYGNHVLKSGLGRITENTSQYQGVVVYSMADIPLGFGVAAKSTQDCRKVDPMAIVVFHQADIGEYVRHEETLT
UniProt O95299, whole entry, looked up: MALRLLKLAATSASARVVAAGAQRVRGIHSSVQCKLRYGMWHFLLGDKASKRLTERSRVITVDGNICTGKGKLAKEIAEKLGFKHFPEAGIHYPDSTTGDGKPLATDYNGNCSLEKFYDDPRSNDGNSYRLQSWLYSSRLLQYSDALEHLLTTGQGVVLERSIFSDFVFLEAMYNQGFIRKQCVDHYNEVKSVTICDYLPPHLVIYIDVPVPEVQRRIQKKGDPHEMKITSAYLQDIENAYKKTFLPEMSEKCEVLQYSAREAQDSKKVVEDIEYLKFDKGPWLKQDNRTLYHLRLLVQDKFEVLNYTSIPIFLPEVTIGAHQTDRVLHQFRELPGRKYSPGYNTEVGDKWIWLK
UniProt P08651, whole entry, looked up: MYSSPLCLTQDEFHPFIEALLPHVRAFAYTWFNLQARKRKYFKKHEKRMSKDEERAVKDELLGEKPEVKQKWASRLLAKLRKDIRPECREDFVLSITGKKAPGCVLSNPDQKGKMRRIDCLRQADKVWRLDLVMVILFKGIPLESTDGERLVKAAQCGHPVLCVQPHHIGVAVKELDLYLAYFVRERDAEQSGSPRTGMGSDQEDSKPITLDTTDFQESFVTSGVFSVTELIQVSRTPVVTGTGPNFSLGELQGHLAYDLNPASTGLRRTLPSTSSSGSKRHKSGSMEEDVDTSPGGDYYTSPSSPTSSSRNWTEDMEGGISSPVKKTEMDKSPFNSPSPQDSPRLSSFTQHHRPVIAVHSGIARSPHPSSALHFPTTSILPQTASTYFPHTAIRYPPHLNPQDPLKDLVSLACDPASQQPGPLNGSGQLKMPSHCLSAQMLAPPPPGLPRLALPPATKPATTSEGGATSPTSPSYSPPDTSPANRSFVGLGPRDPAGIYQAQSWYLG
UniProt Q9NX02: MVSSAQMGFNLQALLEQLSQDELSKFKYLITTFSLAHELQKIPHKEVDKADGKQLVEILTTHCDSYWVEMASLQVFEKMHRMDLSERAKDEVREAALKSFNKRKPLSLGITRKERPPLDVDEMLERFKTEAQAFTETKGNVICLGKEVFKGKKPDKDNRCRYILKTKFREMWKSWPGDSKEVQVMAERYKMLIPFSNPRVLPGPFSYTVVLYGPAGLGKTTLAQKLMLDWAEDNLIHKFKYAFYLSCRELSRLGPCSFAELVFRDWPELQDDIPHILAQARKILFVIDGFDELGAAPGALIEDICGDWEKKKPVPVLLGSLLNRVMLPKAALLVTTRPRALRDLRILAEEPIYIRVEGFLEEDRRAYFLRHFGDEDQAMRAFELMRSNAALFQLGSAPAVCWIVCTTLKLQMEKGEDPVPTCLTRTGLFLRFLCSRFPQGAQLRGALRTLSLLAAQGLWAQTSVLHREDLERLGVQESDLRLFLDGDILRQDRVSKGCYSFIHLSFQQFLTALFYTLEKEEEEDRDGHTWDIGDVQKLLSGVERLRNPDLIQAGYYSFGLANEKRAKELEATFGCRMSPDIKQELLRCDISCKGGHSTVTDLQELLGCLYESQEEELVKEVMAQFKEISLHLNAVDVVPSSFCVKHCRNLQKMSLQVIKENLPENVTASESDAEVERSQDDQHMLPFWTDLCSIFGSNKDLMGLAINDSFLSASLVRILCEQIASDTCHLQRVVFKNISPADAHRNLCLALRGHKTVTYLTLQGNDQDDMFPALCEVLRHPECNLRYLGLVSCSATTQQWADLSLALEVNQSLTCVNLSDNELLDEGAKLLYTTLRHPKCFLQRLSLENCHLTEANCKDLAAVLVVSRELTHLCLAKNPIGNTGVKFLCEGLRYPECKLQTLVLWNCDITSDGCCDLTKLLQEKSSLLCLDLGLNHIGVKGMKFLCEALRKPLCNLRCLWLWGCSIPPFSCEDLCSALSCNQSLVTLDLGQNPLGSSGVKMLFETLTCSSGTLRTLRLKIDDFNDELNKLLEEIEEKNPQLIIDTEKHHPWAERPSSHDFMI
UniProt O00221: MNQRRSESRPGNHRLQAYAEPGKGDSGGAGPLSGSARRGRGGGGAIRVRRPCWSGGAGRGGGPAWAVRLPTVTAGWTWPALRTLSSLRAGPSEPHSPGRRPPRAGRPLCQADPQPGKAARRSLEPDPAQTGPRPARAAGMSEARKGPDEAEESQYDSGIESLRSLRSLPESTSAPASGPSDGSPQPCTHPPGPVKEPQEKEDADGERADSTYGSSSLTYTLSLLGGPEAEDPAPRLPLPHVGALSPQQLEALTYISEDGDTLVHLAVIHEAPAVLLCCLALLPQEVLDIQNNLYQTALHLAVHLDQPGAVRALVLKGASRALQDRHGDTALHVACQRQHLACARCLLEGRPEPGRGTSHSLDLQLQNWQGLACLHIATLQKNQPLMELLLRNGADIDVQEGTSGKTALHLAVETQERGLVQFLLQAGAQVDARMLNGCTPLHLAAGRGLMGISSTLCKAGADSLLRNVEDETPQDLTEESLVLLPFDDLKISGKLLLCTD
UniProt Q6NW34: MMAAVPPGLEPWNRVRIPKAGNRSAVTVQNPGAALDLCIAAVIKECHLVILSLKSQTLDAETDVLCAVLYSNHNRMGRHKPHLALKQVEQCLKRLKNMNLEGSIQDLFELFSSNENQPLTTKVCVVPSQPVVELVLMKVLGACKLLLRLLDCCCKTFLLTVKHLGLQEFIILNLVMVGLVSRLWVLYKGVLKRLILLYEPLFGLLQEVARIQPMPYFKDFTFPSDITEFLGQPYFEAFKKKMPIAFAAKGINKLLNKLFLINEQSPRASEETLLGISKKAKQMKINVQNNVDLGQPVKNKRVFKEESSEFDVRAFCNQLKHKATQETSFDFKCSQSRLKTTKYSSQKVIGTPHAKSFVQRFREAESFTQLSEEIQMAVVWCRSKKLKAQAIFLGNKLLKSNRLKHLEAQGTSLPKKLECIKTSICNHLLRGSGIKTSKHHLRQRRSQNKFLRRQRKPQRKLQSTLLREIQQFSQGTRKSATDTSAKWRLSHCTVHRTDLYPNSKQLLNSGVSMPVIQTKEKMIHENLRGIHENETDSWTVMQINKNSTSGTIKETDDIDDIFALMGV
UniProt Q86Y39, whole entry, looked up: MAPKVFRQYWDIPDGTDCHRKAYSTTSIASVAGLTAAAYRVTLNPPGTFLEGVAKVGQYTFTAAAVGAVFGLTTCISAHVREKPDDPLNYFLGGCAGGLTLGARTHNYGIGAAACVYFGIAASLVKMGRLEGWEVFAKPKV
UniProt Q96IV0: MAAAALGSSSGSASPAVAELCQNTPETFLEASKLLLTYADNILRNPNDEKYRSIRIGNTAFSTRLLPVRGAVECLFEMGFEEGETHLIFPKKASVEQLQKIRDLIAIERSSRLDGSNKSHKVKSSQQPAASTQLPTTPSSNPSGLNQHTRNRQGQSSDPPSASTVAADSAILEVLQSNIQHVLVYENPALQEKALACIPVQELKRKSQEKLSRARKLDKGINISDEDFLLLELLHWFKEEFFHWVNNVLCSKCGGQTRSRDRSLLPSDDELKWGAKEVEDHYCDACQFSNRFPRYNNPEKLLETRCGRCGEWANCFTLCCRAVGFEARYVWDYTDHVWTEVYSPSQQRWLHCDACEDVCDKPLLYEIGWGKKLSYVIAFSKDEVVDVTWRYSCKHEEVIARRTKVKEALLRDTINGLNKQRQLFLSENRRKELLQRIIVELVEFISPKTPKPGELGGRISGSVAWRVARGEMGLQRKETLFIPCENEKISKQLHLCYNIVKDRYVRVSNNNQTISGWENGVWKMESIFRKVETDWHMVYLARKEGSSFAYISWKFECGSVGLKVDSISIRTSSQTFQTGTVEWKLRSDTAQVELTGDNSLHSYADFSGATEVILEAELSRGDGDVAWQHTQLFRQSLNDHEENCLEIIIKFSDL

log2 fold change, inactive:
NIPSNAP3A (UniProt Q9UFN0) -0.007
NEDD8 (UniProt Q15843) 0.04
NDUFAF4 (UniProt Q9P032) -0.029
NDUFV1 (UniProt P49821) -0.013
NEU1 (UniProt Q99519) -0.089
NDRG2 (UniProt Q9UN36) -0.014
NDUFAB1 (UniProt O14561) 0.041
NIFK (UniProt Q9BYG3) -0.004
NFU1 (UniProt Q9UMS0) 0.026
NDC80 (UniProt O14777) -0.04
NEDD1 isoform 3 (UniProt Q8NHV4) -0.011
NIP7 (UniProt Q9Y221) -0.03
NIT1 (UniProt Q86X76) 0.028
NDUFA10 (UniProt O95299) -0.098
NFIC (UniProt P08651) -0.004
NLRP2 (UniProt Q9NX02) 0.004
NEDD4 isoform 4 (UniProt P46934) 0.003
NDRG3 (UniProt Q9UGV2) -0.011
NFKBIE (UniProt O00221) 0.03
NEPRO (UniProt Q6NW34) 0.035
NDUFA11 (UniProt Q86Y39) 0.029
NGLY1 (UniProt Q96IV0) -0.017
NFS1 (UniProt Q9Y697) -0.039

Two records picked at random from those above:
log2 fold change, inactive:
NDUFA11 (UniProt Q86Y39) 0.029
NEDD8 (UniProt Q15843) 0.04

— the supplement of paper PMC10849652
